Counter-ions that a name gives are not always drawn. The list shows a part of the results. Hit calls seldom repeat between salt and free forms of one compound.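 Kinases, fused to nanoluciferase, were expressed in K562 cells; luminescence was measured every 4 h from 2 to 18 h as percent of control (DMSO = 100%, positive control = 0%). A time point is decreased if signal falls significantly (2 sigma). Hits were called by the authors by a rule that is not shown; the count of time points alone does not decide it.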
Biological target: EPHA2 (UniProt P29317)
Test: kinase-Nluc reporter destabilization hit call (1 = scored as downregulated) (binary); higher = compound decreases kinase abundance
Conditions: K562; 2-18 h

Amino acid sequences for entries named in this document (tags omitted).
UniProt P29317, whole entry: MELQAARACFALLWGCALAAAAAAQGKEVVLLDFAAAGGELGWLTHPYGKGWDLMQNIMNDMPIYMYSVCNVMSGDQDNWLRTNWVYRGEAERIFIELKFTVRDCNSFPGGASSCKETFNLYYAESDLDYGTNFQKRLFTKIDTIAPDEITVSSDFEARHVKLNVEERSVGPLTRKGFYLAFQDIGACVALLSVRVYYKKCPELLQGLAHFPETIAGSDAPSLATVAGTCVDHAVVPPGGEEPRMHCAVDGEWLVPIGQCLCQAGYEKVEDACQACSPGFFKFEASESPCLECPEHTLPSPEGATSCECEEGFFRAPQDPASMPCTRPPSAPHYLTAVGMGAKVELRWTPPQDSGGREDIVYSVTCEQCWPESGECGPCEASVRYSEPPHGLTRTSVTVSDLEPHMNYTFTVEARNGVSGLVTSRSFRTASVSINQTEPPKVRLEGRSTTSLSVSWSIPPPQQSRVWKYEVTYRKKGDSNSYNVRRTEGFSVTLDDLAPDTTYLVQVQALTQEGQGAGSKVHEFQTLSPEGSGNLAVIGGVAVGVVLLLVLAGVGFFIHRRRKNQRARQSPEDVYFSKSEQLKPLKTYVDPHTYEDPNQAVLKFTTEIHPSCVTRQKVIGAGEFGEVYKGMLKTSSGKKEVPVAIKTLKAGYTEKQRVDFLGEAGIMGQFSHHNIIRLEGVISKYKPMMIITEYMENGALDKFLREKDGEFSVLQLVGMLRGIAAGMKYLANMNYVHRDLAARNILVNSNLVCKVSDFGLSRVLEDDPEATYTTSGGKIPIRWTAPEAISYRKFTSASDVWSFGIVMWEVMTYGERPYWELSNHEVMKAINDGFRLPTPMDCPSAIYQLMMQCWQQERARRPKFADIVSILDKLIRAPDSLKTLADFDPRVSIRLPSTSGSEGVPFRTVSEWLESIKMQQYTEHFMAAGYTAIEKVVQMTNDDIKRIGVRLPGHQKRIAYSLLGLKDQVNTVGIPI

kinase-Nluc reporter destabilization hit call, inactive:
O=c1cc(-c2ccc(O[C@@H]3O[C@H](CO)[C@@H](O)[C@H](O)[C@H]3O)cc2)oc2cc(O)c([C@@H]3O[C@H](CO)[C@@H](O)[C@H](O)[C@H]3O[C@@H]3OC[C@H](O)[C@H](O)[C@H]3O)c(O)c12 [Vaccarin] (10 µM) 0
O=CN1CCN(c2ccc(C=C3C(=O)Nc4ccccc43)cc2)CC1 (10 µM) 0
COc1ccc(Cl)cc1N(CC(=O)Nc1ccc2c(c1)OCO2)S(=O)(=O)c1ccccc1 (2.5 µM) 0
CCc1c(C(=O)NNC(=O)[C@H](O)c2cc(F)cc(F)c2)ccc(O)c1C (10 µM) 0
CN(C)CCn1cc2cc(NC(=O)c3cccc(C(F)(F)F)n3)c(C(C)(C)O)cc2n1 (10 µM) 0
CCC[C@H](C)Oc1nc(N)c2[nH]c(=O)n(CCCCCN3CCCCC3)c2n1 (10 µM) 0
CCOC(=O)c1c(C)[nH]c(C=C2C(=O)Nc3ccccc32)c1C (10 µM) 0
Cc1ccc(NC(=O)N2CCN(c3nc(N)nc4sc(-c5cccnc5)nc34)CC2)cc1 [PI4KIII beta inhibitor 3] (10 µM) 0
CS[C@@]1(C(=O)Nc2ccc3[nH]nc(-c4ccc(OC(C)C)nc4)c3c2)CCN(CC(=O)N2CC=C(c3ccc(-c4ncn(C)n4)cc3)CC2)C1 (2.5 µM) 0
O=C(Nc1ccc(Cl)cc1)C1CN(C(=O)c2cccc(-c3ccco3)c2)CC(F)(F)C1 (stereo not given) (2.5 µM) 0
Nc1ccc(Sc2nc3ccccc3s2)c(Cl)c1 [KRAS inhibitor-9] (10 µM) 0
Cn1c(N2CCO[C@@H](c3ccc(F)cc3)C2)nc(-c2ccncn2)cc1=O (10 µM) 0
COc1ccc(CN2CCC(c3ccc4nc(C(=O)N5CCN(Cc6ccc(C(F)(F)F)cc6)CC5)[nH]c4c3)CC2)cn1 (2.5 µM) 0
O=C(O)c1c[nH]c2cc(Cl)c(-c3ccc(C4(O)CCC4)cc3)cc12 (10 µM) 0
CC(C)(Oc1ccc(Cl)cc1)C(=O)Nc1ccc(OCc2ccc(C#N)cc2)cc1 [AMPK activator 4] (10 µM) 0
O=C(NCc1ccn[nH]1)c1cc([C@@H]2CCNC[C@H]2COc2ccc3c(c2)OCO3)ccc1F [GRK2-IN-1 (hydrochloride)] (10 µM) 0
Cc1cnc(Cl)nc1-c1ccc(N(Cc2ccc(CNC(=O)C(F)F)cc2)C(=O)c2ccc(O)cc2O)cc1 (10 µM) 0
CC1=C(C#N)C(c2ccc3[nH]nc(C)c3c2)C(C#N)=C(C)N1 (10 µM) 0
CN(C[C@@H]1COCCO1)S(=O)(=O)Nc1ccc2ccc3ncc(-c4cnn(C)c4)cc3c(=O)c2c1 (2.5 µM) 0
CC(=O)Nc1nc(C)c(-c2cc(C)c3c(c2)CN([C@@H](C)C2CC2)C3=O)s1 (10 µM) 0
O=C(Nc1ccccc1C(=O)NC1CCCCNC1=O)c1cc2ccccc2s1 (stereo not given) (10 µM) 0
CO[C@]1(C(=O)N[C@@H](C)c2ccc(-n3cc(F)cn3)nc2)CC[C@H](c2nc(C)cc(Nc3cc(C)[nH]n3)n2)CC1 [Pralsetinib] (10 µM) 0
O=[N+]([O-])c1ccc(-c2nc(-c3ccc(F)cc3)c(-c3ccncc3)[nH]2)cc1 (10 µM) 0
CC(ONC(=O)c1cc(C(F)(F)F)cc(C(F)(F)F)c1)C(=O)Nc1ccc(Cl)cc1 (stereo not given) (2.5 µM) 0
Cc1cncc2cccc(S(=O)(=O)N3CCCNC[C@@H]3C)c12 [H-1152 (dihydrochloride)] (10 µM) 0
Cc1nc(NC(=O)N2CCC[C@H]2C(N)=O)sc1-c1ccnc(C(C)(C)C(F)(F)F)c1 [Alpelisib] (2.5 µM) 0
CCCCNc1ncc2c(-c3ccc(F)cc3)nn(CC3CCC(N)CC3)c2n1 (stereo not given) (2.5 µM) 0
CS(=O)(=O)c1ccc([C@@H](CC2CCCC2)C(=O)Nc2nccs2)cc1 (10 µM) 0
CO/N=C1/C(c2c(O)[nH]c3cc(Cl)c(Cl)cc23)=Nc2ccccc21 (10 µM) 0
CNCc1ccccc1Sc1cccc2ccccc12 [IFN alpha-IFNAR-IN-1 (hydrochloride)] (10 µM) 0

Part of the list above in order of heavy-atom count, rising:
kinase-Nluc reporter destabilization hit call, inactive:
O=C(O)c1c[nH]c2cc(Cl)c(-c3ccc(C4(O)CCC4)cc3)cc12 (10 µM) 0
Cc1nc(NC(=O)N2CCC[C@H]2C(N)=O)sc1-c1ccnc(C(C)(C)C(F)(F)F)c1 [Alpelisib] (2.5 µM) 0
Cc1ccc(NC(=O)N2CCN(c3nc(N)nc4sc(-c5cccnc5)nc34)CC2)cc1 [PI4KIII beta inhibitor 3] (10 µM) 0
